# Measured values from the supplement of paper PMC12067093, “Discovery and optimisation of a covalent ligand for TRIM25 and its application to targeted protein ubiquitination” (Chemical Science, 2025).
# The chains behind the UniProt entries cited, without tags or fusion partners. Where a name states a change or a piece, a line headed by the entry shows the natural chain unless it says otherwise.
# UniProt P02545: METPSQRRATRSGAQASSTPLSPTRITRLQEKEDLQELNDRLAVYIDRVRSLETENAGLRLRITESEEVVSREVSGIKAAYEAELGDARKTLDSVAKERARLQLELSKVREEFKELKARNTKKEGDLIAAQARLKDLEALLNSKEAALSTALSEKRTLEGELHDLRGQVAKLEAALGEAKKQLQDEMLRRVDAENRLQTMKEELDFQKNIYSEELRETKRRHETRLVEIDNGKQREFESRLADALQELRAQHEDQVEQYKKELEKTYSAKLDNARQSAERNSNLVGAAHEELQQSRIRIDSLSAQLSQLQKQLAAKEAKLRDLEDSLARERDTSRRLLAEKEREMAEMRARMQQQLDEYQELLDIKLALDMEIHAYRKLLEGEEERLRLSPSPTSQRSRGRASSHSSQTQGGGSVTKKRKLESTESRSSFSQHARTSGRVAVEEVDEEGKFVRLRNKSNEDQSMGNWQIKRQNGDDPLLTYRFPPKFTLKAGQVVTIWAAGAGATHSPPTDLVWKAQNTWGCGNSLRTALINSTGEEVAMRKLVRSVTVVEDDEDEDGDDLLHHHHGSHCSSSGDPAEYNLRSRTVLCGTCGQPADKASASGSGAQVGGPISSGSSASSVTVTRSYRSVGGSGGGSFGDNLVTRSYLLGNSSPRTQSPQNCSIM
# UniProt P53671: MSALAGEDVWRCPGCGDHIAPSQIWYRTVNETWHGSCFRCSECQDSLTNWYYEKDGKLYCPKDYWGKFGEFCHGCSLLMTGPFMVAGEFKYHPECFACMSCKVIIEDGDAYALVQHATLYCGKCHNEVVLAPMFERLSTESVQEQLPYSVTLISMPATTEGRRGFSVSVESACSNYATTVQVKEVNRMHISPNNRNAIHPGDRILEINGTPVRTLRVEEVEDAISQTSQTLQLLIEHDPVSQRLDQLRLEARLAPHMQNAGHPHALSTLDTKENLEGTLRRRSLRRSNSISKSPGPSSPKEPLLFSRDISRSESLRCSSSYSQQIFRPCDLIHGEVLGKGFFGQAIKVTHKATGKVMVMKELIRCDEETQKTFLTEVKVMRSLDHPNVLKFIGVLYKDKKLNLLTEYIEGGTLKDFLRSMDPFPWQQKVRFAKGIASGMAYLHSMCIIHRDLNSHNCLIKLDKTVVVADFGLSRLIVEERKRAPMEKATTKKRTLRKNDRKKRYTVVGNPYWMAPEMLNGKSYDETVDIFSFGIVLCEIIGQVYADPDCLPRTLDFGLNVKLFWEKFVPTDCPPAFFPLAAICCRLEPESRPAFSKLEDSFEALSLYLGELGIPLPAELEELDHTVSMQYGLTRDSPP
# UniProt Q7L5N7: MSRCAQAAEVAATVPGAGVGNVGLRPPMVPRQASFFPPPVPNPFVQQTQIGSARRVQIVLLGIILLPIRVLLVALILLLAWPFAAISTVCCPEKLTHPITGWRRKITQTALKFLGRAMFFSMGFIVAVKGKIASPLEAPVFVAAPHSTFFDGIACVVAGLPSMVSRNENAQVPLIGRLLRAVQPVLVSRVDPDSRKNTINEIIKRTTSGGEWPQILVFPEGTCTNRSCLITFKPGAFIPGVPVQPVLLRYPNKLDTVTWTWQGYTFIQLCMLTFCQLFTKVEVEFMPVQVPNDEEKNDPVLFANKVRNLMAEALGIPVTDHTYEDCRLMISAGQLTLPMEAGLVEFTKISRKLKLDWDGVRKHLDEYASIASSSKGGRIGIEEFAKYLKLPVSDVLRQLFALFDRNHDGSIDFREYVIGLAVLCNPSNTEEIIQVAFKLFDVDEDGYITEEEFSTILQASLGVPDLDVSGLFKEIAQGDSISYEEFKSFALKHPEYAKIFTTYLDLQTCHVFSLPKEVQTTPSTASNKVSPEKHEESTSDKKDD
# UniProt O75427: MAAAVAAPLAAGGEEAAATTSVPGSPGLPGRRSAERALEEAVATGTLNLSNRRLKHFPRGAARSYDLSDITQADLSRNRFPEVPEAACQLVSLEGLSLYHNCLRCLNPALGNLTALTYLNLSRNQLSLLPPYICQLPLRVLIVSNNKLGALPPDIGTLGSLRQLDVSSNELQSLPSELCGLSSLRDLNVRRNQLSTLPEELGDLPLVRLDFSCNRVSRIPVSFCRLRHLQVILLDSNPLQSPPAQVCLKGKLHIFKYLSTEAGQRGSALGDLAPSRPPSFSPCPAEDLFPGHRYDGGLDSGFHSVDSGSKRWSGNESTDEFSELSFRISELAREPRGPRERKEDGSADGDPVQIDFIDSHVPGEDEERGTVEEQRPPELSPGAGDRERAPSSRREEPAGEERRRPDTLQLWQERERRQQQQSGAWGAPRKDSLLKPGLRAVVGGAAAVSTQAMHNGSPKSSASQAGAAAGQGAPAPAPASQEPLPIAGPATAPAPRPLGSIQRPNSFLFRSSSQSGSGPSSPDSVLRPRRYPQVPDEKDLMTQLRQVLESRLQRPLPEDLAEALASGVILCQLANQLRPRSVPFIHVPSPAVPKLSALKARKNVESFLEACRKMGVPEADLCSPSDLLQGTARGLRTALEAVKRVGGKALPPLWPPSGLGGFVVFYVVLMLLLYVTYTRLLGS
# UniProt Q96L50: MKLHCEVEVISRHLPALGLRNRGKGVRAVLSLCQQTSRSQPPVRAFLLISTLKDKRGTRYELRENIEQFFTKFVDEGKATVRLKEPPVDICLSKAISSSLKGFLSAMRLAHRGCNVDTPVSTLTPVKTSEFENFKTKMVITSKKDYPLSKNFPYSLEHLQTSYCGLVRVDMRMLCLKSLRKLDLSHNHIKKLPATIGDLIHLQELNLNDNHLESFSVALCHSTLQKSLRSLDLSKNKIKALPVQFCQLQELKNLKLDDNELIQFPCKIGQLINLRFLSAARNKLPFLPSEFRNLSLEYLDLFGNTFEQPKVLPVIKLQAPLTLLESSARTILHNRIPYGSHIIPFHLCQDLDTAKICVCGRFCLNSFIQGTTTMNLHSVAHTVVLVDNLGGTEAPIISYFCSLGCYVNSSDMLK
# UniProt Q9UGP4: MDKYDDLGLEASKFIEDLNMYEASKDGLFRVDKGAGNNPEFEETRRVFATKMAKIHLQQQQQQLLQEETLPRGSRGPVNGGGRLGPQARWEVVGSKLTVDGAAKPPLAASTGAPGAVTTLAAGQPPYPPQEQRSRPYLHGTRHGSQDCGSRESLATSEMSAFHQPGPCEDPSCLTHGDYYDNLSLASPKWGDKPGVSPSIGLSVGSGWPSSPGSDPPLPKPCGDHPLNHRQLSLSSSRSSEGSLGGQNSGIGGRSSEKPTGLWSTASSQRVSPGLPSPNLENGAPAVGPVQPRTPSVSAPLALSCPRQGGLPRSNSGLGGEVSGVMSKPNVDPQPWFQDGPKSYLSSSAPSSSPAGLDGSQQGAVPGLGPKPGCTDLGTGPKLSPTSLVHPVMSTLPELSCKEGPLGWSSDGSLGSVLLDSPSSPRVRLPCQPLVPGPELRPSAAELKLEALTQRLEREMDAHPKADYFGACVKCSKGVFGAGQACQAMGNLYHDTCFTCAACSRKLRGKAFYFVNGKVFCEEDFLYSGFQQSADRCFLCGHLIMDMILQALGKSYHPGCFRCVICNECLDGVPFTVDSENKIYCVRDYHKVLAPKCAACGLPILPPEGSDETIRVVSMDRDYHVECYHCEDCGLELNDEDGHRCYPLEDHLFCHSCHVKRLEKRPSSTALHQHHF
# UniProt Q03252: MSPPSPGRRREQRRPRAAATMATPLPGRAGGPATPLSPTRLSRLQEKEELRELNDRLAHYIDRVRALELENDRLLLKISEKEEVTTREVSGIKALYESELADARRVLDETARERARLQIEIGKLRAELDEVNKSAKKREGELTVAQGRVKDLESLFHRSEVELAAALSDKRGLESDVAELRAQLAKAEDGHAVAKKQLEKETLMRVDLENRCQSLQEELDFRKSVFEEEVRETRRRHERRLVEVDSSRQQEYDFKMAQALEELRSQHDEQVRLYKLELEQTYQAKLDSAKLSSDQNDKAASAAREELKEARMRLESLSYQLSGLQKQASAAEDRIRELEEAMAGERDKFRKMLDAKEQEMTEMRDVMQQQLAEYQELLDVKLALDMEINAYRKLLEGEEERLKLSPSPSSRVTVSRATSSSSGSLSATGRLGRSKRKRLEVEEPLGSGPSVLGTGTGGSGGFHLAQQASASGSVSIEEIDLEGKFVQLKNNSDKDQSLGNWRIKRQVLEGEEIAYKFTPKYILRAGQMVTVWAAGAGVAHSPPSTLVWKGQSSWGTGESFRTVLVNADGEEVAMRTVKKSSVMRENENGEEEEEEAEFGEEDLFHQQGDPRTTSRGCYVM
# UniProt Q9Y4Z0: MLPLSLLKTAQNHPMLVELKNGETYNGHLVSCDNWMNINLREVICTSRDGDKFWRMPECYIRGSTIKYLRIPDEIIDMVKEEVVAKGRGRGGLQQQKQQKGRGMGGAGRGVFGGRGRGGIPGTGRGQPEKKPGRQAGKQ
# UniProt Q9H2I8: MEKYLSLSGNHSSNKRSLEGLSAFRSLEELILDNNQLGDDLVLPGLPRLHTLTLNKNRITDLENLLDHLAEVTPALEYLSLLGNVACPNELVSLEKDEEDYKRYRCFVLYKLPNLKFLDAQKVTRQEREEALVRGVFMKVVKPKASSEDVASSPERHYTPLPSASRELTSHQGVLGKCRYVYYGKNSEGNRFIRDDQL
# UniProt Q05469: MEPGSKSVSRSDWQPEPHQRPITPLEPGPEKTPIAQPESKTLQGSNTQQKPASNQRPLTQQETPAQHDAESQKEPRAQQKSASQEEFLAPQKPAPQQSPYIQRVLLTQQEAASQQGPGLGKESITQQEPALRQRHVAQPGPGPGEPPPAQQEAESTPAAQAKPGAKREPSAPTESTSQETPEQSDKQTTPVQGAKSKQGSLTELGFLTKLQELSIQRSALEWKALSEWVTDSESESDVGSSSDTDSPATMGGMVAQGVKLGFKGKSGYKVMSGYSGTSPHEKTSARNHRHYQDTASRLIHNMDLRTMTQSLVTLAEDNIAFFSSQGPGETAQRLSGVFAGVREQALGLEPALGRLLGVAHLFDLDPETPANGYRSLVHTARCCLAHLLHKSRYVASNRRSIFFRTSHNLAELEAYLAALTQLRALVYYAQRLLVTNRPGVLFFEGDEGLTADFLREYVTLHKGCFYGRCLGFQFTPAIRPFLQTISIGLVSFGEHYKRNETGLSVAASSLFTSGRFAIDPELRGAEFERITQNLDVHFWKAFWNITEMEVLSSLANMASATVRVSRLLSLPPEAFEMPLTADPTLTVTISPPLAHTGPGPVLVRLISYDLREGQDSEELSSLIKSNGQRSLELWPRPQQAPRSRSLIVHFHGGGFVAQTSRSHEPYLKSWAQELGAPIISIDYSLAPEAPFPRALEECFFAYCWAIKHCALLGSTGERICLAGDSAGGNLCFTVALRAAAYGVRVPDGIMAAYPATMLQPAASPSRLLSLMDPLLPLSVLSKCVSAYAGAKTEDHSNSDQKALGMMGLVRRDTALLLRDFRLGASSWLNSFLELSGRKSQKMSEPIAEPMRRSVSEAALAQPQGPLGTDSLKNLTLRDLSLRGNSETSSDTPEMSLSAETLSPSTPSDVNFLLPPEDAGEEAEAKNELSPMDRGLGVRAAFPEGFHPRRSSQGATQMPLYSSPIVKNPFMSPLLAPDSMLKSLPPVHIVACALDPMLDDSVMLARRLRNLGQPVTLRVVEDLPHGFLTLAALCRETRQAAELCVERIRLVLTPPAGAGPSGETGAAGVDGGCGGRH
# UniProt Q12907: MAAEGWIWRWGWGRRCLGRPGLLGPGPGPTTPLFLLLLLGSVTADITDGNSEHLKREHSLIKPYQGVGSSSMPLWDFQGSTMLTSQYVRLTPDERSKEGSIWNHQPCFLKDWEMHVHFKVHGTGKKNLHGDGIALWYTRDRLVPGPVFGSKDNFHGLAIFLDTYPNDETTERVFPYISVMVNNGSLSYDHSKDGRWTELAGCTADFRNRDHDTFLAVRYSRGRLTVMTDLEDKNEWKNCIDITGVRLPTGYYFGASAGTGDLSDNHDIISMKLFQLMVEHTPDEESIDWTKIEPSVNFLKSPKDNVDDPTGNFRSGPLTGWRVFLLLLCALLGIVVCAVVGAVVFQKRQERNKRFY
# UniProt Q8N1G4: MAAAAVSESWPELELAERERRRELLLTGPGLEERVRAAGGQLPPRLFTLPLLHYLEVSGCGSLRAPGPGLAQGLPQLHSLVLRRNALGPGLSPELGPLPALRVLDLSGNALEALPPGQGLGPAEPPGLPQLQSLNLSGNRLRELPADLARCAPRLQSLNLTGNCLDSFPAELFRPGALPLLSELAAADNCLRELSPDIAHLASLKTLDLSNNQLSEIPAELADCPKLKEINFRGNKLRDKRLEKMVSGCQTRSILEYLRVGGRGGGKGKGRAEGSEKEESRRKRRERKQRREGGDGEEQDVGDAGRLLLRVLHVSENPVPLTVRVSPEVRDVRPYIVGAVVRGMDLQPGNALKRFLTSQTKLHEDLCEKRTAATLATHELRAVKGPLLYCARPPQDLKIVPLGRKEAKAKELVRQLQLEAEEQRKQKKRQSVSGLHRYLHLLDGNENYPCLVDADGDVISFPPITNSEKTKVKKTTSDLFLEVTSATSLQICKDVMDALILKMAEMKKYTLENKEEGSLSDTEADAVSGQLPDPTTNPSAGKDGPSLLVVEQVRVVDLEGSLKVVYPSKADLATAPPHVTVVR
# This is one part of the list.
# Compound: CC1Cc2ccccc2N1C(=O)C1CCCN(C1)C(=O)CCl (mixture of isomers) [TRIM25 ligand 11 (diastereomer mixture)]
# Test: probe-labelled cysteine peptide fold change vs DMSO (competition) (log2 fold change); higher = less target engagement (more negative = stronger competition)
# Settings: THP-1, incubation time: 4 h
# 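Note: competitive chemoproteomic profiling in live THP-1 cells with an iodoacetamide desthiobiotin (IA-DTB) probe, comparing probe-labelled peptide intensities in compound-treated cells against DMSO-treated controls.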
target,measurement,setting,value
LMNA_P02545_522_AQNTWGCGNSLR (UniProt P02545),probe-labelled cysteine peptide fold change,10 µM,-0.104
same,probe-labelled cysteine peptide fold change,50 µM,-0.14
LIMK2_P53671_365_CDEETQK (UniProt P53671),probe-labelled cysteine peptide fold change,10 µM,0.0225
same,probe-labelled cysteine peptide fold change,50 µM,-0.0271
LPCAT2_Q7L5N7_228_SCLITFKPGAFIPGVPVQPVLLR (UniProt Q7L5N7),probe-labelled cysteine peptide fold change,10 µM,-0.154
same,probe-labelled cysteine peptide fold change,50 µM,0.0199
LRRC8D_Q7L1W4_733_CLDVSYNNISMIPIEIGLLQNLQHLHITGNK (UniProt Q7L1W4),probe-labelled cysteine peptide fold change,10 µM,0.312
same,probe-labelled cysteine peptide fold change,50 µM,0.513
LRCH4_O75427_102_NRFPEVPEAACQLVSLEGLSLYHNCLR (UniProt O75427),probe-labelled cysteine peptide fold change,10 µM,0.354
same,probe-labelled cysteine peptide fold change,50 µM,0.263
LRPPRC_P42704_413_EVQMHSFPLQFTLHCALLANK (UniProt P42704),probe-labelled cysteine peptide fold change,10 µM,-0.0836
same,probe-labelled cysteine peptide fold change,50 µM,-0.0858
LRR1_Q96L50_91_LKEPPVDICLSK (UniProt Q96L50),probe-labelled cysteine peptide fold change,10 µM,-0.00206
same,probe-labelled cysteine peptide fold change,50 µM,0.0649
LRRFIP1_Q32MZ4_726_SEDADRCTLPEHESPSQDISDACEAESTER (UniProt Q32MZ4),probe-labelled cysteine peptide fold change,10 µM,0.0357
same,probe-labelled cysteine peptide fold change,50 µM,-0.442
LMAN2L_Q9H0V9_200_DGRPTELGGCTAIVR (UniProt Q9H0V9),probe-labelled cysteine peptide fold change,10 µM,0.0851
same,probe-labelled cysteine peptide fold change,50 µM,0.019
LRRFIP1_Q32MZ4_726+742_CTLPEHESPSQDISDACEAESTER (UniProt Q32MZ4),probe-labelled cysteine peptide fold change,10 µM,0.365
same,probe-labelled cysteine peptide fold change,50 µM,-0.0779
LIMD1_Q9UGP4_401_LSPTSLVHPVMSTLPELSCK (UniProt Q9UGP4),probe-labelled cysteine peptide fold change,10 µM,-0.0626
same,probe-labelled cysteine peptide fold change,50 µM,-0.356
LRP1_Q07954_3021_GGDPHSCK (UniProt Q07954),probe-labelled cysteine peptide fold change,10 µM,0.15
same,probe-labelled cysteine peptide fold change,50 µM,0.116
LSS_P48449_700_SCAISYTSYR (UniProt P48449),probe-labelled cysteine peptide fold change,10 µM,-0.0251
same,probe-labelled cysteine peptide fold change,50 µM,-0.0794
LMNB2_Q03252_212_CQSLQEELDFRK (UniProt Q03252),probe-labelled cysteine peptide fold change,10 µM,-0.019
same,probe-labelled cysteine peptide fold change,50 µM,-0.0559
LSM4_Q9Y4Z0_32_NGETYNGHLVSCDNWMNINLR (UniProt Q9Y4Z0),probe-labelled cysteine peptide fold change,10 µM,-0.114
same,probe-labelled cysteine peptide fold change,50 µM,-0.0668
LRMDA_Q9H2I8_106_CFVLYK (UniProt Q9H2I8),probe-labelled cysteine peptide fold change,10 µM,-0.00746
same,probe-labelled cysteine peptide fold change,50 µM,-0.00207
LIMD1_Q9UGP4_148_HGSQDCGSR (UniProt Q9UGP4),probe-labelled cysteine peptide fold change,10 µM,0.11
same,probe-labelled cysteine peptide fold change,50 µM,-0.456
LIPE_Q05469_382_CCLAHLLHK (UniProt Q05469),probe-labelled cysteine peptide fold change,10 µM,-0.015
same,probe-labelled cysteine peptide fold change,50 µM,0.0688
LLGL1_Q15334_1059_NLAEDEAHACAILIK (UniProt Q15334),probe-labelled cysteine peptide fold change,10 µM,0.0189
same,probe-labelled cysteine peptide fold change,50 µM,-0.322
LMAN2_Q12907_239_NCIDITGVR (UniProt Q12907),probe-labelled cysteine peptide fold change,10 µM,-0.0104
same,probe-labelled cysteine peptide fold change,50 µM,0.244
LENG8_Q96PV6_500_MAALECEDPER (UniProt Q96PV6),probe-labelled cysteine peptide fold change,10 µM,-0.0959
same,probe-labelled cysteine peptide fold change,50 µM,-0.102
LRRC47_Q8N1G4_190_PGALPLLSELAAADNCLR (UniProt Q8N1G4),probe-labelled cysteine peptide fold change,10 µM,-0.132
same,probe-labelled cysteine peptide fold change,50 µM,-0.0541

# Reprinted from above for reference:
target,measurement,setting,value
LRRFIP1_Q32MZ4_726+742_CTLPEHESPSQDISDACEAESTER (UniProt Q32MZ4),probe-labelled cysteine peptide fold change,10 µM,0.365
same,probe-labelled cysteine peptide fold change,50 µM,-0.0779
LIMD1_Q9UGP4_401_LSPTSLVHPVMSTLPELSCK (UniProt Q9UGP4),probe-labelled cysteine peptide fold change,10 µM,-0.0626
